In experiment [1] the target is T1, Flag-SPINK13 (Kazal-type serine protease inhibitor 13, signal peptide removed) (human) (UniProt Q1W4C9).
T1 sequence: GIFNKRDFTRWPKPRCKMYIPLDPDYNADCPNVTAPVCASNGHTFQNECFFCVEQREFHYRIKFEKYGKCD
Nature of the experiment: co-IP; MHCC97-H cells cotransfected with pcDNA3.1-Flag-SPINK13 and pcDNA3.1-HA-Furin; lysate (2 mg/ml) incubated with anti-Flag antibody-conjugated magnetic beads 2 h at room temperature; Western blot with Flag and HA antibodies. Background: A western blot detects proteins with antibodies after separation by electrophoresis.

Protein sequences, listed by entry. Tags and fused reporters are not part of them. Lines headed by an entry give the natural chain unless they say otherwise; changes in a name come on top.
UniProt P09958: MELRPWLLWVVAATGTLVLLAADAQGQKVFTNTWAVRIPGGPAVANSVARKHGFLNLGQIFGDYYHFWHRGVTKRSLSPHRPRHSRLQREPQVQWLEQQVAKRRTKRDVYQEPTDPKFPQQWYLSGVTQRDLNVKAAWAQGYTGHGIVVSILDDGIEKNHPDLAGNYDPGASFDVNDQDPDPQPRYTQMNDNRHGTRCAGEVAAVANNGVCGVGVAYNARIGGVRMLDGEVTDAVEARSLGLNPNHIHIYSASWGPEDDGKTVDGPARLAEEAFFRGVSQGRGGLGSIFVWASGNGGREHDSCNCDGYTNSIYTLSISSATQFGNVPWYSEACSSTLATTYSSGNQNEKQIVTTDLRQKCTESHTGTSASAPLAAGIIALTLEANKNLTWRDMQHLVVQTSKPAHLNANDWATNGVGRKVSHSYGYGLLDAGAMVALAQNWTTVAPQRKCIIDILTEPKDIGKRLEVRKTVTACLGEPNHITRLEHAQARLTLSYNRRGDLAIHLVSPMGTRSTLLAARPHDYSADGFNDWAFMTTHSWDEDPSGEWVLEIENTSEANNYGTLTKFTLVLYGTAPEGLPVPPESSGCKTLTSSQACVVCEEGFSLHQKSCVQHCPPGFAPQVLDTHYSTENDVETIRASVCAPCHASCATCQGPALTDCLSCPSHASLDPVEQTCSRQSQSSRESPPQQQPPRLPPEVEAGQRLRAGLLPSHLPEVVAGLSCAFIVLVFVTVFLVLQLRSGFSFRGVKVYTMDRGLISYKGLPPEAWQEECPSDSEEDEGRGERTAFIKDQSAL

In experiment [2] the target is T2, VN173-Flag-SPINK13 fusion protein (BiFC) (human) (UniProt Q1W4C9).
T2 sequence: T1 sequence
The experiment in a line: split reporter; BiFC: pBiFC-VN173-Flag-SPINK13 and pBiFC-VC155-HA-Furin cotransfected into MHCC97-H cells; laser confocal fluorescence microscopy 48 h after transfection; empty-vector combinations as controls.

Results are given in words; binding and its absence hold for the method and conditions named. In cells and extracts the contact can be indirect. Binding calls can cover weak binding; strength is not graded here. Tags and fused reporters may be left off the sequences shown.

HA-Furin (from UniProt P09958) (enzyme): the binding entry in experiment [1] is given as “binds”.

As for “VC155-HA-Furin fusion protein (BiFC) (from UniProt P09958) (enzyme)”, the binding entry in experiment [2] is recorded as “binds”.

The values are drawn from publication PMC11561306.
